For part of these data: Negatives hold for the conditions tested. Where a protein sequence is shown, tags need not be part of it.

The target of data set [1] is T1, Pet-1 (CGS-Pet-1) (Rattus norvegicus) (UniProt O70132).
T1 sequence (limits assumed): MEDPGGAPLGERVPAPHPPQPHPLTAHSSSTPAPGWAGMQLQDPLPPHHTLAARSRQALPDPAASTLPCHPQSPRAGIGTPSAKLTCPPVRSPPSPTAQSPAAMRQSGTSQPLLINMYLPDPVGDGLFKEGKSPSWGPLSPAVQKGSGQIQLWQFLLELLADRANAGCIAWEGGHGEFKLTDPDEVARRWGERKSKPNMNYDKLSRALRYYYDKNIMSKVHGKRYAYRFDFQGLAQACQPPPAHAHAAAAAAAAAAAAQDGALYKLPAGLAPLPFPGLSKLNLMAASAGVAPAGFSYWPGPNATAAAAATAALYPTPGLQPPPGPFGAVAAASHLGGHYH
In words: activity in cells. The note with it: protein in cells, only the site is given.

Data set [2] addresses T2, Pet-1 DNA binding domain-VP16 fusion (Rattus norvegicus) (UniProt O70132).
T2 sequence: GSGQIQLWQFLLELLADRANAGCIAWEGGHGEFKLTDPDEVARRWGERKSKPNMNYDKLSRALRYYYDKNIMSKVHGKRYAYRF
Description: activity in cells. The settings on record: four copies upstream of MLP; activation in retinal cultures; protein in cells; only the site is given.

In the case of “CAGGAAGTGACTCAGGAAGTGACTCAGGAAGTGACAC (double strand) [3XP]”, the “activity on this sequence” value in data set [1] (dose-dependent repression of luciferase reporter in C6 cells) is “active”.

For “CATCAAGTGACTCATCAAGTGACTCATCAAGTGACAC (double strand) [3XPm]”, the “activity on this sequence” value in data set [1] (no repression in C6 cells, variant of 3XP) is “not active”.

Consider “GGGAGGAAATG (double strand) [m5HTT (-2024/-2014)]”, for which the “activity on this sequence” value in data set [2] is listed as “active”.

Source of the values: patent publication US6384204.
